Laboratory results published in PubChem BioAssay AID540276 (National Center for Advancing Translational Sciences (NCATS), 2011).
The whole screen tested about 300,000 compounds, of which about 5,400 (1.8%) were called active. Inconclusive results, whose numbers are uncertain, are shown with a selection of clear calls. Calls come from the whole dose curve; tested in HEK293 cells. Potencies of inconclusive entries are doubtful fits and often do not repeat.

experiment: qHTS for inhibitors of binding or entry into cells for Marburg Virus; details: Marburg virus pseudotyped entry inhibition, cell reporter; activity change, negative = inhibition: at 37.8 µM (top of the series) unless noted
% is set by controls: 0 for no effect and ±100 for the full control effect; potency is the fitted concentration of half-maximal effect.

Row | SMILES | Potency | activity change, negative = inhibition
1 | CC(=O)c1cccc(N(C(=O)c2csnn2)C(C(=O)NC2CCCC2)c2ccccc2)c1 (configuration not stated) | inconclusive: 35.5 µM [inhibitor, single point] | 
2 | Nc1ncc(-c2ccc([N+](=O)[O-])cc2)cn1 | inconclusive: 11.2 µM [activator, partial curve, poor fit] | 
3 | Cc1ccc(NC(=O)/C(C#N)=C/c2ccccc2C(F)(F)F)cc1 |  | inactive: 23.2%
4 | N#Cc1ccc(NC(=O)c2cccs2)nc1 | inconclusive: 20 µM [activator, single point] | 
5 | Cc1ccc(OCCC(=O)NCCc2ccc(S(N)(=O)=O)cc2)cc1 |  | inactive: 28.2%
6 | CCOC(=O)N1CCN(C(=O)CSCc2nc(-c3ccccc3F)oc2C)CC1 | inconclusive: 32.6 µM [inhibitor, single point] | 
7 | Clc1ccc(-c2cn3cc(Cc4ccccc4)sc3n2)cc1 |  | inconclusive: 96.5% [activator] [at 46.1 µM]
8 | COc1ccc(C(NC(=O)c2ccc(=O)[nH]c2)C(=O)Nc2ccc(C(C)C)cc2)cc1 (configuration not stated) | inconclusive: 35.5 µM [inhibitor, single point] | 
9 | Cc1cc(NS(=O)(=O)c2ccc(NC(=O)CCCOc3ccccc3C)cc2)nc(C)n1 | inconclusive: 28.2 µM [inhibitor, single point] | 
10 | CCN(C(=O)Cn1nc(Cc2ccncc2)c2ccccc2c1=O)c1ccc(OC)cc1 | inconclusive: 5.62 µM [activator, single point] | 
11 | COCCn1nnnc1CN1CCC(Cc2ccccc2)CC1 |  | inactive: 3.49%
12 | Cc1ccc(NC(=S)c2ccc3ccccc3n2)c(C)c1 |  | inactive: 20.5% [at 46.1 µM]
13 | O=C(NNc1ncccc1-n1cccc1)c1ccc(Cl)cc1 |  | inactive: -2.19%
14 | COc1cc(C2CC(=O)c3c([nH]c(C(=O)OC4CCCC4)c3C)C2)cc(OC)c1OC (configuration not stated) | inconclusive: 11.2 µM [inhibitor, partial curve, poor fit] | 
15 | COc1ccc(-c2cc(C(F)(F)F)n3nc(C(=O)NCc4ccco4)cc3n2)cc1 |  | inactive: -1.31%
16 | CCOC(=O)C1(CCOC)CCN(C2C3CC4CC(C3)CC2C4)CC1 (configuration not stated) | inconclusive: 5.62 µM [inhibitor, single point] | 
17 | N#CC1(Nc2ccc(Br)cc2)CCCC1 | inconclusive: 1.12 µM [inhibitor, full curve, poor fit] | 
18 | Cc1ccc(/C=N/N2CCN(c3ccncc3S(=O)(=O)N3CCCCC3)CC2)cc1 |  | inactive: 10.8%
19 | COC(=O)c1c(-c2ccc(C)cc2)csc1NC(=S)NC(=O)c1ccc(F)cc1 |  | inactive: 9%
20 | N/C(=N\OC(=O)C12CC3CC(CC(C3)C1)C2)c1ccccc1 | inconclusive: 29.1 µM [inhibitor, single point] | 
21 | OCCC1CN(CCCc2ccccc2)CCN1CCc1ccccc1 (configuration not stated) | inconclusive: 12.6 µM [inhibitor, partial curve, poor fit] | 

Shown in markdown: part of the list above

| Row | SMILES | Potency | activity change, negative = inhibition |
| --- | --- | --- | --- |
| 4 | N#Cc1ccc(NC(=O)c2cccs2)nc1 | inconclusive: 20 µM [activator, single point] |  |
| 5 | Cc1ccc(OCCC(=O)NCCc2ccc(S(N)(=O)=O)cc2)cc1 |  | inactive: 28.2% |
| 6 | CCOC(=O)N1CCN(C(=O)CSCc2nc(-c3ccccc3F)oc2C)CC1 | inconclusive: 32.6 µM [inhibitor, single point] |  |
| 7 | Clc1ccc(-c2cn3cc(Cc4ccccc4)sc3n2)cc1 |  | inconclusive: 96.5% [activator] [at 46.1 µM] |
| 8 | COc1ccc(C(NC(=O)c2ccc(=O)[nH]c2)C(=O)Nc2ccc(C(C)C)cc2)cc1 (configuration not stated) | inconclusive: 35.5 µM [inhibitor, single point] |  |
| 9 | Cc1cc(NS(=O)(=O)c2ccc(NC(=O)CCCOc3ccccc3C)cc2)nc(C)n1 | inconclusive: 28.2 µM [inhibitor, single point] |  |
| 10 | CCN(C(=O)Cn1nc(Cc2ccncc2)c2ccccc2c1=O)c1ccc(OC)cc1 | inconclusive: 5.62 µM [activator, single point] |  |

(cont.)

Row | SMILES | Potency | activity change, negative = inhibition
22 | O=C(c1cc(Cl)ccc1Cl)N1CCc2ccccc21 | inconclusive: 5.01 µM [inhibitor, single point] | 
23 | COC(=O)c1cc2c(-c3ccccc3)c(C)c3ccccn3c-2c1C(=O)OC | inconclusive: 20 µM [inhibitor, single point] | 
24 | CCC1(C)CC(=O)c2c(ccc3oc(C(=O)Nc4ccc(C(C)=O)cc4)c(C)c23)O1 (configuration not stated) | inconclusive: 3.16 µM [activator, partial curve] | 
25 | CCOC(=O)C1(CC2CCCCO2)CCN(Cc2c(C)cc(C)cc2-n2cccn2)CC1 (configuration not stated) | inconclusive: 10 µM [inhibitor, partial curve, poor fit] | 
26 | CCn1ccnc1CN(C)C(=O)c1cc(COc2ccccc2SC)on1 |  | inactive: 17.7%
27 | O=C(NC(CO)C(=O)OCc1ccccc1)OCc1ccccc1 (configuration not stated) | inconclusive: 35.5 µM [activator, single point] | 
28 | CCOc1ccc(C(=O)NCC(=O)OCCCOC(=O)CNC(=O)c2ccc(OCC)cc2)cc1 |  | inactive: 17%
29 | COc1ccc(NC(=O)CN(C)C(=O)c2ccccc2Sc2ncnc3sc(C)c(C)c23)cc1 | inconclusive: 35.5 µM [inhibitor, single point] | 
30 | CCC(=O)N(CCC(Cc1ccccc1)c1ccco1)Cc1ccco1 (configuration not stated) | inconclusive: 11.2 µM [inhibitor, partial curve, poor fit] | 
31 | COc1cc(NC(C)CCCN)c2ncccc2c1Oc1ccccc1 (configuration not stated) | inconclusive: 18.4 µM [inhibitor, single point] | 
32 | CCN(CC)c1ccc(C=NN2CCCCCC2)cc1 | inconclusive: 6.31 µM [activator, single point] | 
33 | CC(=O)c1c(COC(=O)c2ccco2)nc2ccccc2[n+]1[O-] | inconclusive: 2.82 µM [activator, full curve, poor fit] | 
34 | O=C(Nc1cccc(C(=O)NC2CCCCC2)c1)c1ccccc1 | inconclusive: 35.5 µM [activator, single point] | 
35 | CN(c1ccccc1)S(=O)(=O)c1cccc(NC(=O)CSc2n[nH]c(N)n2)c1 | inconclusive: 35.5 µM [inhibitor, single point] | 
36 | CCN(Cc1ccccc1)C(=O)c1cc2cc(OC)c(OC)cc2[nH]1 | inconclusive: 1 µM [inhibitor, partial curve] | 
37 | COc1ccc(-c2cc(-c3ccccc3)nc(NN)n2)cc1OC | inconclusive: 15.8 µM [inhibitor, partial curve, poor fit] | 
38 | Cc1ccc(OCC(=O)OCCN2C(=O)c3ccccc3C2=O)cc1C | inconclusive: 3.55 µM [activator, single point] | 
39 | CCOC(=O)C1CCCN(C(=O)c2ccc(S(=O)(=O)NCc3ccco3)cc2)C1 (configuration not stated) |  | inactive: -28.7%
40 | Cc1ccc(Cn2cccc(NC(=O)NC3CCCCC3)c2=O)cc1 | inconclusive: 0.073 µM [inhibitor, full curve, poor fit] | 
41 | COc1ccc(NC(=O)CN2C(=O)/C(=C3\SC(=S)N(C4CCS(=O)(=O)C4)C3=O)c3ccccc32)cc1 (configuration not stated) | inconclusive: 5.62 µM [inhibitor, single point] | 
42 | O=[N+]([O-])c1ccc(N/N=C/c2cn(Cc3ccc(F)cc3)c3ccccc23)nc1 | inconclusive: 14.1 µM [inhibitor, single point] | 
